Test results reported in publication PMC2553837.
Numbering of substitutions follows the chain as printed. These are yes or no findings as the source states them, for the method shown. For some of these results: Binding calls can cover weak binding; strength is not graded here. For some of these results: Sequences can lack the tags named with a protein.

What was measured:
[1] = target: T1, LexA-XA21K(TDG) (rice (Oryza sativa)) (UniProt Q1MX30); assay: two-hybrid; Matchmaker LexA system, yeast pEGY48/p8op-LacZ; LexA-XA21 variants as bait, AD-XB15 as prey; lacZ reporter
T1 sequence: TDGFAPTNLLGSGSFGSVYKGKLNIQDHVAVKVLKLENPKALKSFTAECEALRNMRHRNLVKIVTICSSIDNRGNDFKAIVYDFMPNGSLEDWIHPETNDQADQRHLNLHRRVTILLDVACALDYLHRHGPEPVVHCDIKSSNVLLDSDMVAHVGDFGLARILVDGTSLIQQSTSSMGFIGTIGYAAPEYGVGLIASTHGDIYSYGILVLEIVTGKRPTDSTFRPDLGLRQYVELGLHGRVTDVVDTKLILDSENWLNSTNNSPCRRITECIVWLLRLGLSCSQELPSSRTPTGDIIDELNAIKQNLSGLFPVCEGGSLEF

[2] = target: T2, LexA-XA21K668 (rice (Oryza sativa)) (UniProt Q1MX30); assay: as above
T2 sequence: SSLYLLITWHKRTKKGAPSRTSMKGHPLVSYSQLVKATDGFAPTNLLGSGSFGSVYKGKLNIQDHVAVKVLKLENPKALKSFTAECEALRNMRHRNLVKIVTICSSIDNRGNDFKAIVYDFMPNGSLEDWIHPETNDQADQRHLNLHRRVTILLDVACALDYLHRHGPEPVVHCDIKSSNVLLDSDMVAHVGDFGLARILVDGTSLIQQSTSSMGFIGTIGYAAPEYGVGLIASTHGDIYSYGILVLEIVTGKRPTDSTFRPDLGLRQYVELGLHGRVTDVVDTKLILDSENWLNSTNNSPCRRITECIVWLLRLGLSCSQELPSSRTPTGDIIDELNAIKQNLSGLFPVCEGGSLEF

[3] = target: T3, LexA-XA21K668^K736E (rice (Oryza sativa)) (UniProt Q1MX30); assay: as above
T3 sequence: T2 sequence with K69E

[4] = target: T4, LexA-XA21K668^S686A (rice (Oryza sativa)) (UniProt Q1MX30); assay: as above
T4 sequence: T2 sequence with S19A

[5] = target: T5, LexA-XA21K668^S686A,T688A,S689A (rice (Oryza sativa)) (UniProt Q1MX30); assay: as above
T5 sequence: T2 sequence with S19A, T21A, S22A

[6] = target: T6, LexA-XA21K668^S689A (rice (Oryza sativa)) (UniProt Q1MX30); assay: as above
T6 sequence: T2 sequence with S22A

[7] = target: T7, LexA-XA21K668^S697A (rice (Oryza sativa)) (UniProt Q1MX30); assay: as above
T7 sequence: T2 sequence with S30A

[8] = target: T8, LexA-XA21K668^T688A (rice (Oryza sativa)) (UniProt Q1MX30); assay: as above
T8 sequence: T2 sequence with T21A

[9] = target: T9, XA21K668 (bait of the GAL4-based yeast two-hybrid screen) (rice (Oryza sativa)) (UniProt Q1MX30); assay: two-hybrid; GAL4-based screen of a rice (IRBB21) cDNA library with XA21K668 as bait; growth without histidine and beta-galactosidase activity; 7 x 10^7 transformants
T9 sequence: T2 sequence

[10] = target: T10, GST-XA21K668 (rice (Oryza sativa)) (UniProt Q1MX30); assay: pull-down; GST-XA21K668 or GST (20 ug) on glutathione-sepharose beads, HIS-XB15ΔN in solution; 20 mM Tris pH 7.5, 150 mM NaCl, 2 mM MgCl2, 0.5 mM dithiothreitol; 2 h at 4 °C; blot with anti-HIS; both purified
T10 sequence: T2 sequence

| binding [1] | binding [2] | binding [3] | binding [4] | binding [5] | binding [6] | binding [7] | binding [8] | binding [9] | binding [10] | Substance |
| --- | --- | --- | --- | --- | --- | --- | --- | --- | --- | --- |
| no binding | binds | no binding | binds | binds | binds | no binding | binds | binds |  | AD-XB15 (pAD-GAL4 containing full length of Xb15) (rice (Oryza sativa)) |
|  |  |  |  |  |  |  |  |  | binds | HIS-XB15ΔN (rice (Oryza sativa)) (domain or fragment) |
